Data taken from patent US20020147306A1, “Peptides that modulate the interaction of B class ephrins and PDZ domains” (priority 1998, published 2002).
Results are given in words; binding and its absence hold for the method and conditions named. Some binding calls cover weakened binding; strength is not graded here. Sequences can lack the tags named with a protein.

Molecular target: T1, ephrin B1 (wild-type, full-length) (UniProt P98172)
T1 sequence (looked up): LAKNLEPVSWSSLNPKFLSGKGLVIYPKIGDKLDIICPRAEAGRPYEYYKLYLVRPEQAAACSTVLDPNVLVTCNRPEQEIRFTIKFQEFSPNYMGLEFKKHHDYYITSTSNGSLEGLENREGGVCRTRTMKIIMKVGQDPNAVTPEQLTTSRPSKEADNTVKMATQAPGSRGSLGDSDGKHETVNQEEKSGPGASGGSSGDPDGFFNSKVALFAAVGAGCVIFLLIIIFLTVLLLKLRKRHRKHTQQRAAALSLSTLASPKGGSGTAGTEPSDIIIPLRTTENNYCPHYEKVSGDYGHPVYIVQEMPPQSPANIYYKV
Assay: GST mix with GST fusions of syntenin fragments, anti-ephrin B1 immunoblot

B1: GST-syntenin PDZ 1+2 (residues 101-299) (protein, mouse, UniProt O08992 101-299, looked up, not shown: a dimerising Fc or GST)
chain: DAGIRRAEIKQGIREVILCKDQDGKIGLRLKSIDNGIFVQLVQANSPASLVGLRFGDQVLQINGENCAGWSSDKAHKVLKQAFGEKITMTIRDRPFERTVTMHKDSSGHVGFIFKSGKITSIVKDSSAARNGLLTDHHICEINGQNVIGLKDAQIADILSTAGTVVTITIMPTFIFEHIIKRMAPSIMKSLMDHTIPEV
binding: binds
